{
  "source": "the supplement of paper PMC8728848",
  "binders": {"B1": {"name": "SJCP1531 (Schistosoma japonicum) (protein)", "chain": "MFKVRIINLVNISTVLLLINLLQTKSQVNVEQLVTVLEVNIKAQLKNKTTEVLVEWNPLYQDNSMPEYRKLLDETCKLFLPFVNEKVPPSTYGGECTNANFSEAPQDGSYSRVNAELRLIYKYSDNPQIQTDRLQDDLNDREEFITSESSFVAYNPKFTVKIEKLFIPISESQTTPPPTTAKNDASKKDDDDNGGEDSKAPIDTFAMTASGNKGKKDDDDNGGEDSKAPIDTFAMTASGSKDERSTWTIIGIITLVVLIFVVIGGGITVFVKRC"}},
  "experiment_in_all_cases": "glycan array binding signal (z-score within array); higher = stronger binding",
  "settings_in_all_cases": "glycan notation: IUPAC condensed, linker removed",
  "key": {"[1]": {"target": "Neu5Ac(a2-6)Gal(b1-4)GlcNAc(b1-2)Man(a1-3)[Neu5Ac(a2-3)Gal(b1-4)GlcNAc(b1-2)Man(a1-6)]Man(b1-4)GlcNAc(b1-4)GlcNAc", "procedure,_shortened": "(§1)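 The binding signal is a Z-score computed within each array. Data were drawn from 3228 arrays in the Consortium for Functional Glycomics database, restricted to those with a known protein sequence. Scores were averaged over arrays of the same protein sequence at different concentrations or buffers, and over linkers, and negative values can be taken as non-binding.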"}, "[2]": {"target": "Neu5Ac(a2-6)Gal(b1-4)GlcNAc(b1-2)Man(a1-3)[Neu5Ac(a2-6)Gal(b1-4)GlcNAc(b1-2)Man(a1-6)]Man(b1-4)GlcNAc(b1-4)GlcNAc", "procedure,_shortened": "as §1"}, "[3]": {"target": "Neu5Ac(a2-6)Gal(b1-4)GlcNAc(b1-2)Man(a1-3)[Neu5Ac(a2-6)Gal(b1-4)GlcNAc(b1-2)Man(a1-6)]Man(b1-4)GlcNAc(b1-4)[Fuc(a1-6)]GlcNAc", "procedure,_shortened": "as §1"}, "[4]": {"target": "Neu5Ac(a2-6)Gal(b1-4)GlcNAc(b1-2)Man(a1-6)Man(b1-4)GlcNAc(b1-4)GlcNAc", "procedure,_shortened": "as §1"}, "[5]": {"target": "Neu5Ac(a2-6)Gal(b1-4)GlcNAc(b1-2)Man(a1-6)[Gal(b1-4)GlcNAc(b1-2)Man(a1-3)]Man(b1-4)GlcNAc(b1-4)GlcNAc", "procedure,_shortened": "as §1"}, "[6]": {"target": "Neu5Ac(a2-6)Gal(b1-4)GlcNAc(b1-2)Man(a1-6)[GlcNAc(b1-2)Man(a1-3)]Man(b1-4)GlcNAc(b1-4)GlcNAc", "procedure,_shortened": "as §1"}, "[7]": {"target": "Neu5Ac(a2-6)Gal(b1-4)GlcNAc(b1-2)Man(a1-6)[Man(a1-3)]Man(b1-4)GlcNAc(b1-4)GlcNAc", "procedure,_shortened": "as §1"}, "[8]": {"target": "Neu5Ac(a2-6)Gal(b1-4)GlcNAc(b1-2)[Neu5Ac(a2-6)Gal(b1-4)GlcNAc(b1-4)]Man(a1-3)[GlcNAc(b1-4)][Neu5Ac(a2-6)Gal(b1-4)GlcNAc(b1-2)[Neu5Ac(a2-6)Gal(b1-4)GlcNAc(b1-6)]Man(a1-6)]Man(b1-4)GlcNAc(b1-4)GlcNAc", "procedure,_shortened": "as §1"}, "[9]": {"target": "Neu5Ac(a2-6)Gal(b1-4)GlcNAc(b1-2)[Neu5Ac(a2-6)Gal(b1-4)GlcNAc(b1-4)]Man(a1-3)[GlcNAc(b1-4)][Neu5Ac(a2-6)Gal(b1-4)GlcNAc(b1-4)Man(a1-6)]Man(b1-4)GlcNAc(b1-4)GlcNAc", "procedure,_shortened": "as §1"}, "[10]": {"target": "Neu5Ac(a2-6)Gal(b1-4)GlcNAc(b1-2)[Neu5Ac(a2-6)Gal(b1-4)GlcNAc(b1-6)]Man(a1-6)[Neu5Ac(a2-6)Gal(b1-4)GlcNAc(b1-2)Man(a1-3)][GlcNAc(b1-4)]Man(b1-4)GlcNAc(b1-4)GlcNAc", "procedure,_shortened": "as §1"}, "[11]": {"target": "Neu5Ac(a2-6)Gal(b1-4)GlcNAc(b1-3)Gal(b1-3)GlcNAc", "procedure,_shortened": "as §1"}, "[12]": {"target": "Neu5Ac(a2-6)Gal(b1-4)GlcNAc(b1-3)Gal(b1-4)GlcNAc", "procedure,_shortened": "as §1"}, "[13]": {"target": "Neu5Ac(a2-6)Gal(b1-4)GlcNAc(b1-3)Gal(b1-4)GlcNAc(b1-2)Man(a1-3)[Neu5Ac(a2-6)Gal(b1-4)GlcNAc(b1-3)Gal(b1-4)GlcNAc(b1-2)Man(a1-6)]GalNAc", "procedure,_shortened": "as §1"}, "[14]": {"target": "Neu5Ac(a2-6)Gal(b1-4)GlcNAc(b1-3)Gal(b1-4)GlcNAc(b1-3)Gal(b1-4)GlcNAc", "procedure,_shortened": "as §1"}, "[15]": {"target": "Neu5Ac(a2-6)Gal(b1-4)GlcNAc(b1-3)Gal(b1-4)GlcNAc(b1-3)Gal(b1-4)GlcNAc(b1-2)Man(a1-3)[Neu5Ac(a2-6)Gal(b1-4)GlcNAc(b1-3)Gal(b1-4)GlcNAc(b1-3)Gal(b1-4)GlcNAc(b1-2)Man(a1-6)]GalNAc", "procedure,_shortened": "as §1"}, "[16]": {"target": "Neu5Ac(a2-6)Gal(b1-4)GlcNAc(b1-3)Gal(b1-4)GlcNAc(b1-3)GalNAc", "procedure,_shortened": "as §1"}, "[17]": {"target": "Neu5Ac(a2-6)Gal(b1-4)GlcNAc(b1-3)Gal(b1-4)GlcNAc(b1-3)[Neu5Ac(a2-6)Gal(b1-4)GlcNAc(b1-3)Gal(b1-4)GlcNAc(b1-6)]GalNAc", "procedure,_shortened": "as §1"}, "[18]": {"target": "Neu5Ac(a2-6)Gal(b1-4)GlcNAc(b1-3)Gal(b1-4)GlcNAc(b1-6)[Gal(b1-3)]GalNAc", "procedure,_shortened": "as §1"}, "[19]": {"target": "Neu5Ac(a2-6)Gal(b1-4)GlcNAc(b1-3)Gal(b1-4)[Fuc(a1-3)]GlcNAc(b1-3)Gal(b1-4)[Fuc(a1-3)]GlcNAc", "procedure,_shortened": "as §1"}, "[20]": {"target": "Neu5Ac(a2-6)Gal(b1-4)GlcNAc(b1-3)GalNAc", "procedure,_shortened": "as §1"}, "[21]": {"target": "Neu5Ac(a2-6)Gal(b1-4)GlcNAc(b1-3)[Neu5Ac(a2-6)Gal(b1-4)GlcNAc(b1-6)]GalNAc", "procedure,_shortened": "as §1"}, "[22]": {"target": "Neu5Ac(a2-6)Gal(b1-4)GlcNAc(b1-6)GalNAc", "procedure,_shortened": "as §1"}, "[23]": {"target": "Neu5Ac(a2-6)Gal(b1-4)GlcNAc(b1-6)[Gal(b1-3)GlcNAc(b1-3)]Gal(b1-4)Glc", "procedure,_shortened": "as §1"}, "[24]": {"target": "Neu5Ac(a2-6)Gal(b1-4)GlcNAc(b1-6)[Gal(b1-3)]GalNAc", "procedure,_shortened": "as §1"}, "[25]": {"target": "Neu5Ac(a2-6)Gal(b1-4)GlcNAc6S", "procedure,_shortened": "as §1"}, "Neu5Ac(a2-6)GalNAc": {"target": "Neu5Ac(a2-6)GalNAc", "procedure,_shortened": "as §1"}, "[26]": {"target": "Neu5Ac(a2-6)GalNAc(b1-4)GlcNAc", "procedure,_shortened": "as §1"}, "[27]": {"target": "Neu5Ac(a2-6)GalNAc(b1-4)GlcNAc6S", "procedure,_shortened": "as §1"}, "[28]": {"target": "Neu5Ac(a2-6)GlcNAc(b1-4)GlcNAc", "procedure,_shortened": "as §1"}, "[29]": {"target": "Neu5Ac(a2-6)GlcNAc(b1-4)GlcNAc(b1-4)GlcNAc", "procedure,_shortened": "as §1"}},
  "note": "The other results are listed elsewhere or left out.",
  "data": [
    {"binder": "B1", "values": [
      {"measurement": "glycan array binding signal (z-score)", "setting": "[1]", "result": -0.577},
      {"measurement": "glycan array binding signal (z-score)", "setting": "[2]", "result": 0.54},
      {"measurement": "glycan array binding signal (z-score)", "setting": "[3]", "result": 0.85},
      {"measurement": "glycan array binding signal (z-score)", "setting": "[4]", "result": -0.187},
      {"measurement": "glycan array binding signal (z-score)", "setting": "[5]", "result": 1.07},
      {"measurement": "glycan array binding signal (z-score)", "setting": "[6]", "result": -0.388},
      {"measurement": "glycan array binding signal (z-score)", "setting": "[7]", "result": -1.2},
      {"measurement": "glycan array binding signal (z-score)", "setting": "[8]", "result": -1.71},
      {"measurement": "glycan array binding signal (z-score)", "setting": "[9]", "result": -1.19},
      {"measurement": "glycan array binding signal (z-score)", "setting": "[10]", "result": -0.8},
      {"measurement": "glycan array binding signal (z-score)", "setting": "[11]", "result": -0.1},
      {"measurement": "glycan array binding signal (z-score)", "setting": "[12]", "result": 0.433},
      {"measurement": "glycan array binding signal (z-score)", "setting": "[13]", "result": 0.152},
      {"measurement": "glycan array binding signal (z-score)", "setting": "[14]", "result": -0.766},
      {"measurement": "glycan array binding signal (z-score)", "setting": "[15]", "result": 3.3},
      {"measurement": "glycan array binding signal (z-score)", "setting": "[16]", "result": 2.87},
      {"measurement": "glycan array binding signal (z-score)", "setting": "[17]", "result": 3},
      {"measurement": "glycan array binding signal (z-score)", "setting": "[18]", "result": -0.713},
      {"measurement": "glycan array binding signal (z-score)", "setting": "[19]", "result": 1.44},
      {"measurement": "glycan array binding signal (z-score)", "setting": "[20]", "result": -0.154},
      {"measurement": "glycan array binding signal (z-score)", "setting": "[21]", "result": -0.441},
      {"measurement": "glycan array binding signal (z-score)", "setting": "[22]", "result": -0.157},
      {"measurement": "glycan array binding signal (z-score)", "setting": "[23]", "result": 0.485},
      {"measurement": "glycan array binding signal (z-score)", "setting": "[24]", "result": 0.236},
      {"measurement": "glycan array binding signal (z-score)", "setting": "[25]", "result": -0.736},
      {"measurement": "glycan array binding signal (z-score)", "setting": "Neu5Ac(a2-6)GalNAc", "result": -0.48},
      {"measurement": "glycan array binding signal (z-score)", "setting": "[26]", "result": -1.71},
      {"measurement": "glycan array binding signal (z-score)", "setting": "[27]", "result": 0.413},
      {"measurement": "glycan array binding signal (z-score)", "setting": "[28]", "result": -0.636},
      {"measurement": "glycan array binding signal (z-score)", "setting": "[29]", "result": -0.292}
    ]}
  ]
}
